{
  "source": "patent US10433545B2",
  "about": "“Non-streaking durable composition for cleaning and disinfecting hard surfaces” (Ecolab USA Inc., priority 2016, dated 2019)",
  "origin": "cited, not measured here",
  "conditions": "cited from earlier work",
  "note": "For at least one compound, name, drawing or mass did not settle the structure.",
  "data": [
    {"smiles": "CCCCC(CC)CO[C@H]1O[C@H](CO)[C@@H](O)[C@H](O)[C@H]1O", "note": "(stereo partly drawn) [AG 6202, a-D-Glucopyranoside, 2-ethylhexyl]", "values": [
      {"measurement": "CMC (mg/L)", "value": "14,000 mg/L"}
    ]}
  ]
}
